# From PubChem BioAssay AID1671190 (National Center for Advancing Translational Sciences (NCATS), 2021)
# Amino acid sequences for entries named in this document (tags omitted). A change or cut given only in a name is not applied to a line headed by its entry.
# UniProt P18054: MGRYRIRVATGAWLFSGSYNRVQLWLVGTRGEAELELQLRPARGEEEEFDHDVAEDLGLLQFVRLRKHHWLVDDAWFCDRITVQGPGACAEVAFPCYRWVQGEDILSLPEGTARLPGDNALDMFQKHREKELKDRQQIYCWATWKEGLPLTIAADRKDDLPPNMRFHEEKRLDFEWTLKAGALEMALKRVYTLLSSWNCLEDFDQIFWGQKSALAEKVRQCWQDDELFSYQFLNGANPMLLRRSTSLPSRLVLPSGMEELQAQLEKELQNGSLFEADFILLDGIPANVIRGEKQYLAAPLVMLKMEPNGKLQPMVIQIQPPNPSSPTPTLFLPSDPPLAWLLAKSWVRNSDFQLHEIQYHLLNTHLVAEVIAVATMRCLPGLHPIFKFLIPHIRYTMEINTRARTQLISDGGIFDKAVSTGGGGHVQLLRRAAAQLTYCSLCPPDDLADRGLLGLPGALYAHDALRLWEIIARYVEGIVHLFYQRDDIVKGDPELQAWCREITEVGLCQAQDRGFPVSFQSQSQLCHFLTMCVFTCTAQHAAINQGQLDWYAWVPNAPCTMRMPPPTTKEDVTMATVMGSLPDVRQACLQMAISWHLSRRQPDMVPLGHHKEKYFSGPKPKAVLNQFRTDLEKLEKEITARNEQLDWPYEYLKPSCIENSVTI
# Among all 580,000 compounds or so, about 6,100 (1.1%) were called active. This list was built around the results that the source calls inconclusive (neither active nor inactive); the mix of calls is not that of the screen. Calls come from the whole dose curve; as a rule, active = well fitted inhibition curve with a large enough effect; inconclusive = small, poorly fitted or top-dose-only effect, or another doubt; inactive = no such curve, though single readings can be large or run the other way. Potencies of inconclusive entries are doubtful fits and often do not repeat.
# Target: Polyunsaturated fatty acid lipoxygenase ALOX12 (Homo sapiens) (UniProt P18054)
# Test: Primary qHTS assay for inhibitors of human arachidonate 12S-lipoxygenase (ALOX12): Round 2
# Conditions: purified 12hLO, xylenol orange hydroperoxide absorbance; activity change, negative = inhibition: at 108 µM (top of the series) unless noted
# Summary of the method: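 Purified human 12hLO at 150 nM in 25 mM Hepes, 0.01% Triton X-100, pH 7.0, preincubated 15 min at room temperature with compound. Reaction started with 40 uM arachidonic acid, 30 min at room temperature. Hydroperoxide measured by Fe-xylenol orange, 573/405 nm absorbance ratio.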
# % is set by controls: 0 for no effect and ±100 for the full control effect; potency is the fitted concentration of half-maximal effect.
Compound,Potency,"activity change, negative = inhibition"
COc1ccc(-n2c(=O)c3sc4ccccc4c3n(CC(=O)Nc3cccc(C)c3)c2=O)cc1,"inconclusive: 50.1 µM [inhibitor, partial curve, poor fit]",–
O=C(O)C1CC=CCC1C(=O)N1CCc2ccccc21 (configuration not stated),"inconclusive: 17.8 µM [inhibitor, partial curve, poor fit]",–
C/C(=C\c1ccccc1)CN1CCN(C)CC1,"inconclusive: 0.794 µM [inhibitor, full curve]",–
CSCCC(NS(=O)(=O)c1ccc(Cl)cc1)C(=O)OCC(=O)c1ccc(F)cc1 (configuration not stated),"inconclusive: 50.1 µM [inhibitor, partial curve, poor fit]",–
O=C(/C=C/c1ccco1)NC(=S)Nc1ccccc1O,"inconclusive: 44.7 µM [inhibitor, partial curve, poor fit]",–
Cn1c(=O)c2cc(NC(=O)Nc3cccnc3)ccc2n1Cc1cccc(C(F)(F)F)c1,"inconclusive: 44.7 µM [inhibitor, partial curve, poor fit]",–
COc1cccc(N2C(=O)NC(=NC3CCCCC3)C23CCCN(CC2CC2)C3)c1 (configuration not stated),–,inactive: 7.64% [at 6.33 µM]
S=C(NCc1ccc2[nH]c3c(c2c1)CCCC3)Nc1ccccc1,active: 39.8 µM,–
COc1cc(C=C2CCC/C(=C\c3ccc(O)c(OC)c3)C2=O)ccc1O,"inconclusive: 14.4 µM [inhibitor, single point]",–
Cc1cccc(-n2ncc3c(N(C)C4CCCCC4)ncnc32)c1,inactive,–
CN(C)S(=O)(=O)c1ccc(N2C(=O)CC2(/C=C/c2ccccc2)C(=O)NC2CCCC2)cc1 (configuration not stated),inactive,–
CC1(c2ccccc2)N(Cc2ccccc2F)C(=O)OC12CCN(Cc1cccc(C#N)c1)CC2 (configuration not stated),inactive,–
CCN(Cc1nccn1C)C(=O)c1ccc(N2CCN3CCCC3C2)nc1 (configuration not stated),inactive,–
CC1=C(C(=O)Nc2ccccc2C)C(c2cccnc2)n2nc(SCc3ccccc3)nc2N1 (configuration not stated),"inconclusive: 112 µM [inhibitor, single point]",–
Cc1ccc(S(=O)(=O)N2CCN(C(=O)CN3CCc4ccccc4C3)CC2)cc1,"inconclusive: 0.794 µM [inhibitor, full curve]",–
Cc1cc(C(=O)N/N=C/c2ccc([N+](=O)[O-])s2)n[nH]1,"inconclusive: 28.2 µM [inhibitor, partial curve, poor fit]",–
Cn1ccnc1CN1CCN(C(=O)C2(Cn3ccnc3)CC2)CC1,"inconclusive: 3.55 µM [inhibitor, full curve, poor fit]",–
COc1ccccc1NC(=O)C1=C(C)Nc2nc(SCc3ccccc3)nn2C1c1ccccn1 (configuration not stated),inactive,–
COc1cccc(-c2nc3ccccc3c(C)c2C#N)c1,"inconclusive: 126 µM [inhibitor, single point]",–
O=C(COC(=O)c1cc2ccccc2oc1=O)NC1CCCCCC1,inactive,–
O=C(/C=C/c1ccc(Cl)cc1)OC1CCCCC1=O (configuration not stated),"inconclusive: 44.7 µM [inhibitor, partial curve]",–

# Compounds above that contain an NH in an aromatic ring (2):
Compound,Potency,"activity change, negative = inhibition"
S=C(NCc1ccc2[nH]c3c(c2c1)CCCC3)Nc1ccccc1,active: 39.8 µM,–
Cc1cc(C(=O)N/N=C/c2ccc([N+](=O)[O-])s2)n[nH]1,"inconclusive: 28.2 µM [inhibitor, partial curve, poor fit]",–

# (further entries)

Compound,Potency,"activity change, negative = inhibition"
O=C(CNC(=O)c1cc(F)cc(F)c1)NCCN1CCc2ccccc2C1,"inconclusive: 112 µM [inhibitor, single point]",–
CCC(C)c1ccc(C(CC)NC(=S)NCc2ccc(F)cc2)cc1 (configuration not stated),"inconclusive: 35.5 µM [inhibitor, partial curve, poor fit]",–
Cc1cccc(C)c1NC(=O)C1c2ccccc2OCC(=O)N1Cc1ccco1 (configuration not stated),"inconclusive: 100 µM [inhibitor, partial curve, poor fit]",–
CCCC(c1c(C)n(C)n(-c2ccccc2)c1=O)c1c(C)n(C)n(-c2ccccc2)c1=O,inactive,–
O=C(CCC(=O)c1ccc2ccccc2c1)NC1CCCCCC1,"inconclusive: 79.4 µM [inhibitor, single point]",–
CCCCCCOc1ccc(CNCCCOCC)cc1,"inconclusive: 0.447 µM [inhibitor, full curve, poor fit]",–
O=C(c1ccncc1)N1CCC[C@@]2(CCN(c3ccccc3)C2)C1,"inconclusive: 31.6 µM [inhibitor, single point]",–
Cc1cc(C)c2nc(SCC(=O)N3CCCC3)cc(C)c2c1,"inconclusive: 2.51 µM [inhibitor, full curve, poor fit]",–
O=C(c1ccc(-c2ccccc2)cc1)N1CCN(c2ncccn2)CC1,"inconclusive: 89.1 µM [inhibitor, partial curve, poor fit]",–
N=c1occ(C(=O)c2cc(F)ccc2O)cc1C(=O)NC1CCCCC1,"inconclusive: 126 µM [inhibitor, single point]",–
CCc1ccc(NC(=O)Cn2c(C)cc3nc4n(c(=O)c32)CCCCC4)cc1,"inconclusive: 70.8 µM [inhibitor, partial curve]",–
CCOCc1nnc(NC(=O)c2cccs2)s1,"inconclusive: 39.8 µM [inhibitor, partial curve, poor fit]",–
O=C(COC(=O)CC12CC3CC(CC(C3)C1)C2)Nc1ccc([N+](=O)[O-])cc1C(F)(F)F,"inconclusive: 63.1 µM [inhibitor, partial curve, poor fit]",–
Cc1sc2nc(SCC(=O)C(C)(C)C)n(Cc3ccco3)c(=O)c2c1C,inactive,–
O=C(Cc1ccc(Br)cc1)Nc1ccccc1C(=O)O,"inconclusive: 35.5 µM [inhibitor, partial curve]",–
O=C(CN1CCCC1)N1CCCC(c2ccc(F)cc2)c2ccc(F)cc21 (configuration not stated),"inconclusive: 5.62 µM [inhibitor, full curve, poor fit]",–
Cc1ccc(C2Cn3nnc(C(=O)N4CCN(C(=O)c5ccco5)CC4)c3CO2)cc1 (configuration not stated),inactive,–
CC1=NN(c2ccccc2)C(=O)C1C=Nc1ccc(N(C)C)cc1 (configuration not stated),"inconclusive: 100 µM [inhibitor, partial curve, poor fit]",–
Cn1cccc1C(=O)N1CCc2nc3cc[nH]n3c(=O)c2C1,"inconclusive: 14.1 µM [inhibitor, partial curve, poor fit]",–
CCCCn1c(=O)[nH]c(=O)c2c1nc(-c1cccc(OCC)c1OC)n2CCOC,inactive,–
CCOc1ccc2nc(NC(=O)c3nc(SC(C)C)ncc3Cl)sc2c1,"inconclusive: 141 µM [inhibitor, partial curve, poor fit]",–

# Rewritten with bars between the fields: part of the list above
Compound | Potency | activity change, negative = inhibition
CC1=NN(c2ccccc2)C(=O)C1C=Nc1ccc(N(C)C)cc1 (configuration not stated) | inconclusive: 100 µM [inhibitor, partial curve, poor fit] | –
Cn1cccc1C(=O)N1CCc2nc3cc[nH]n3c(=O)c2C1 | inconclusive: 14.1 µM [inhibitor, partial curve, poor fit] | –
